Laboratory results published in PubChem BioAssay AID248 (DTP/NCI, 2004).
The list shows only some results of the screen, not a fair sample: it is rich in T/C values a quarter to a half above the control, in often repeated tests (any T/C) and in doses without a T/C. Further doses and runs are listed elsewhere. T/C is the treated group as % of the vehicle group. Some entries give survivors of the animals treated and no T/C: the source files T/C as zero there, which appears to mark a toxic dose or a test without result, not a measured value. Some doses without a T/C left all or most animals alive at the check, yet need not have been tolerated: survival well below the control is almost never listed, so the zero probably covers shortened survival too. Survivors were counted at the toxicity check, usually on the fifth day, unless a day is given; later deaths do not show. Schedule codes are those of the source, read here as Q, the interval in days (D) or hours (H), X, the number of doses. Some entries hold several experiments; the values are given in rising order. For survival time, the PubChem record calls one and a half times the control and up active, and a quarter to a half above the control has no call in these data; cut-offs in other NCI protocols can differ. Some T/C values carry the count of animals alive at the toxicity check (mostly the fifth day); where none is given, no animal had died by that day.

System: L1210 leukemia ip in BDF1 mice, survival T/C
Test: NCI In Vivo Anticancer Drug Screen. Data for tumor model L1210 Leukemia (intraperitoneal) in B6D2F1 (BDF1) mice
Details: T/C endpoint: mean survival time, higher T/C = longer survival
[1] = dose: 100.0 mg/kg/injection, schedule: Q04DX003 (ip), vehicle: saline
[2] = dose: 200.0 mg/kg/injection, schedule: Q04DX003 (ip), vehicle: saline
[3] = dose: 400.0 mg/kg/injection, schedule: Q04DX003 (ip), vehicle: saline
[4] = dose: 400.0 mg/kg/injection, schedule: Q01DX001 (ip), vehicle: saline
[5] = dose: 25.0 mg/kg/injection, schedule: Q04DX003 (ip), vehicle: Klucel (hydroxypropylcellulose) (HPC)
[6] = dose: 50.0 mg/kg/injection, schedule: Q04DX003 (ip), vehicle: Klucel (hydroxypropylcellulose) (HPC)
[7] = dose: 100.0 mg/kg/injection, schedule: Q04DX003 (ip), vehicle: Klucel (hydroxypropylcellulose) (HPC)
[8] = dose: 200.0 mg/kg/injection, schedule: Q04DX003 (ip), vehicle: Klucel (hydroxypropylcellulose) (HPC)
[9] = dose: 400.0 mg/kg/injection, schedule: Q04DX003 (ip), vehicle: Klucel (hydroxypropylcellulose) (HPC)
[10] = dose: 300.0 mg/kg/injection, schedule: Q01DX001 (ip), vehicle: saline
[11] = dose: 200.0 mg/kg/injection, schedule: Q01DX009 (ip), vehicle: saline with Tween-80
[12] = dose: 198.0 mg/kg/injection, schedule: Q01DX001 (ip), vehicle: saline
[13] = dose: 25.0 mg/kg/injection, schedule: Q01DX009 (ip), vehicle: Klucel (hydroxypropylcellulose) (HPC)
[14] = dose: 100.0 mg/kg/injection, schedule: Q01DX009 (ip), vehicle: saline with Tween-80
[15] = dose: 400.0 mg/kg/injection, schedule: Q04DX003 (ip), vehicle: saline with Tween-80
[16] = dose: 400.0 mg/kg/injection, schedule: Q01DX001 (ip), vehicle: carboxymethylcellulose (CMC)
[17] = dose: 200.0 mg/kg/injection, schedule: Q01DX009 (ip), vehicle: carboxymethylcellulose (CMC)
[18] = dose: 400.0 mg/kg/injection, schedule: Q01DX009 (ip), vehicle: carboxymethylcellulose (CMC)
[19] = dose: 200.0 mg/kg/injection, schedule: Q04DX003 (ip), vehicle: saline with Tween-80
[20] = dose: 400.0 mg/kg/injection, schedule: Q04DX002 (ip), vehicle: Klucel (hydroxypropylcellulose) (HPC)

## CC[N+](C)(CC)CCC[n+]1c(-c2ccccc2)c2cc(N)ccc2c2ccc(N)cc21
dose: 12.5 mg/kg/injection, schedule: Q01DX009 (ip), vehicle: saline
  survivor count: 2 of 6
dose: 25.0 mg/kg/injection, schedule: Q04DX003 (ip), vehicle: water
  survivor count: 1 of 6
[1]
  survivor count: 0 of 6
[2]
  survivor count: 0 of 6
[3]
  survivor count: 0 of 6

## O=C(CCN1CC2CCC(CC2)C1)c1csc2ccccc12
dose: 200.0 mg/kg/injection, schedule: Q01DX001 (ip), vehicle: carboxymethylcellulose (CMC)
  T/C: 147 % of control

## CC1(C)C2CC=C(CCO)C1C2 (stereo not drawn)
[4]
  survivor count: 2 of 4

## Cc1cc(C)c(C(=O)O)c(C)c1.[Hg]
[5]
  survivor count: 2 of 6
[6]
  survivor count: 1 of 6
[7]
  survivor count: 6 of 6
[8]
  survivor count: 6 of 6
[9]
  survivor count: 6 of 6

## CCN(CC)Cc1cc(Nc2cc(OC)cc3cccnc23)ccc1O
dose: 75.0 mg/kg/injection, schedule: Q01DX001 (ip), vehicle: saline
  survivor count: 0 of 6
dose: 150.0 mg/kg/injection, schedule: Q01DX001 (ip), vehicle: saline
  survivor count: 0 of 6
[10]
  survivor count: 0 of 6

## COc1cc(C=NCCN=Cc2cc(OC)c(OC)c(OC)c2)cc(OC)c1OC
[11]
  survivor count: 6 of 6

## CC(=O)OCC1OC(n2cc(F)c(=O)[nH]c2=O)CC1OC(C)=O (stereo not drawn)
dose: 25.0 mg/kg/injection, schedule: Q01DX009 (ip), vehicle: saline
  T/C: 125 % of control
dose: 50.0 mg/kg/injection, schedule: Q01DX009 (ip), vehicle: saline
  T/C: 125 % of control
dose: 100.0 mg/kg/injection, schedule: Q01DX009 (ip), vehicle: saline
  T/C: 127 and 129 % of control [5 of 6 alive]
dose: 200.0 mg/kg/injection, schedule: Q01DX009 (ip), vehicle: saline
  T/C: 132 % of control
dose: 400.0 mg/kg/injection, schedule: Q01DX009 (ip), vehicle: saline
  T/C: 146 % of control

## CCOC(=O)C(C)CC(C)(C(=O)OCC)C(=O)OCC (stereo not drawn)
[8]
  survivor count: 2 of 6
[9]
  survivor count: 1 of 6

## Cc1ccc2c(ccc(/C=C/c3ccnc4c(O)cccc34)[n+]2C)c1
dose: 132.0 mg/kg/injection, schedule: Q01DX001 (ip), vehicle: saline
  survivor count: 3 of 6
[12]
  T/C: 126 % of control
  survivor count: 0 of 6
[10]
  T/C: 131 % of control [4 of 6 alive]
  survivor count: 0 of 6
dose: 450.0 mg/kg/injection, schedule: Q01DX001 (ip), vehicle: saline
  survivor count: 0 of 6 and 1 of 6

## COc1ccc(C(=Nc2ccc(C)cc2)c2ccccc2)cc1
[13]
  survivor count: 3 of 6

## Cc1ccc(NC(=O)NCC2(C)CC(NC(=O)Nc3ccc(C)cc3)CC(C)(C)C2)cc1 (stereo not drawn)
[14]
  survivor count: 6 of 6
[11]
  survivor count: 6 of 6
[15]
  survivor count: 6 of 6

## C[n+]1cccc(C(=O)O)c1
[16]
  survivor count: 2 of 4

## COc1ccc(Cc2ccc(OC)c(OC)c2)cc1OC
dose: 100.0 mg/kg/injection, schedule: Q04DX003 (ip), vehicle: acetone
  T/C: 127 % of control

## COC1OC(CO)C(O)C1n1cnc2c(SC)ncnc21 (stereo not drawn)
dose: 400.0 mg/kg/injection, schedule: Q04DX002 (ip), vehicle: saline
  survivor count: 0 of 3

## CCOC(=O)C1CC(=O)c2cc(OC)c(OC)cc2C1c1ccc(OC)c(OC)c1 (stereo not drawn)
[16]
  survivor count: 6 of 6

## O=P1(c2ccccc2)OCCO1
[17]
  survivor count: 6 of 6
[18]
  survivor count: 2 of 6

## CSC(=NC#N)SC
dose: 12.5 mg/kg/injection, schedule: Q04DX003 (ip), vehicle: Klucel (hydroxypropylcellulose) (HPC)
  survivor count: 3 of 6
[5]
  survivor count: 1 of 6
[6]
  survivor count: 0 of 6
[7]
  survivor count: 0 of 6
[8]
  survivor count: 0 of 6
[9]
  survivor count: 0 of 6

## O=[N+]([O-])c1ccc(O)c(Br)c1
dose: 50.0 mg/kg/injection, schedule: Q01DX009 (ip), vehicle: carboxymethylcellulose (CMC)
  survivor count: 5 of 6
dose: 100.0 mg/kg/injection, schedule: Q01DX009 (ip), vehicle: carboxymethylcellulose (CMC)
  survivor count: 0 of 6 and 1 of 6
[17]
  survivor count: 0 of 6
[18]
  survivor count: 0 of 6

## Cc1cc2nc(CCl)[nH]c2cc1C
[4]
  survivor count: 0 of 4

## O=S(=O)(O)C(Nc1ccccn1)c1ccccc1 (stereo not drawn)
dose: 200.0 mg/kg/injection, schedule: Q01DX001 (ip), vehicle: saline with Tween-80
  survivor count: 0 of 3
dose: 400.0 mg/kg/injection, schedule: Q01DX001 (ip), vehicle: saline with Tween-80
  survivor count: 0 of 3

## NC(N)=NCCCOc1ccc([N+](=O)[O-])cc1
[19]
  survivor count: 6 of 6
[15]
  survivor count: 6 of 6

## S=C(N/N=C/C(c1ccccc1)c1ccccc1)Nc1ccccc1
[11]
  survivor count: 6 of 6

## CSc1ncnc2nncnc12
dose: 80.0 mg/kg/injection, schedule: Q01DX001 (ip), vehicle: other
  survivor count: 0 of 4
dose: 100.0 mg/kg/injection, schedule: Q01DX001 (ip), vehicle: other
  survivor count: 0 of 4
dose: 200.0 mg/kg/injection, schedule: Q01DX001 (ip), vehicle: other
  survivor count: 0 of 4
dose: 400.0 mg/kg/injection, schedule: Q01DX001 (ip), vehicle: other
  survivor count: 0 of 4

## C[N+]1(CCC(c2ccccc2)c2ccccc2)CCCCC1
[1]
  survivor count: 4 of 6
[2]
  survivor count: 1 of 6
[3]
  survivor count: 0 of 6

## C=CC(OC)OC
[1]
  survivor count: 3 of 6

## CC(C)OC(C(=O)O)c1ccccc1 (stereo not drawn)
[16]
  survivor count: 0 of 4

## C=CCOCC(O)CN(CCC(C)C)CCC(C)C (stereo not drawn)
dose: 200.0 mg/kg/injection, schedule: Q01DX009 (ip), vehicle: Klucel (hydroxypropylcellulose) (HPC)
  survivor count: 0 of 6
dose: 400.0 mg/kg/injection, schedule: Q01DX009 (ip), vehicle: Klucel (hydroxypropylcellulose) (HPC)
  survivor count: 0 of 6
[9]
  survivor count: 1 of 6

## NC(=O)c1cc2c(N)[nH]nc2nc1N
dose: 100.0 mg/kg/injection, schedule: Q04DX003 (ip), vehicle: saline with Tween-80
  survivor count: 1 of 6
[19]
  survivor count: 0 of 6
[15]
  survivor count: 0 of 6

## COC(=O)C(CC(C)C)NC(=O)C(N)Cc1ccc(OCc2ccccc2)cc1 (stereo not drawn)
dose: 50.0 mg/kg/injection, schedule: Q01DX009 (ip), vehicle: saline with Tween-80
  survivor count: 6 of 6
[14]
  survivor count: 2 of 6
[19]
  survivor count: 5 of 6
[15]
  survivor count: 0 of 6

## N#Cc1nc(N)c(NC2(O)C(=O)Nc3ccccc32)nc1C#N (stereo not drawn)
[20]
  survivor count: 0 of 3

## Nc1nc(N)c2cc(CNc3ccc(C(=O)NC(CCCC(=O)O)C(=O)O)cc3)cnc2n1 (stereo not drawn)
dose: 50.0 mg/kg/injection, schedule: Q04DX003 (ip), vehicle: saline with Tween-80
  T/C: 139 % of control
[19]
  T/C: 136 % of control
dose: 300.0 mg/kg/injection, schedule: Q04DX003 (ip), vehicle: saline with Tween-80
  T/C: 131 % of control

## Cc1nccn1CC(=O)c1ccccc1
[13]
  survivor count: 6 of 6
dose: 200.0 mg/kg/injection, schedule: Q04DX002 (ip), vehicle: Klucel (hydroxypropylcellulose) (HPC)
  survivor count: 1 of 3
[20]
  survivor count: 0 of 3 and 0 of 6

## Cc1cc[n+](CCCCCCCCCCO)cc1C
dose: 175.0 mg/kg/injection, schedule: Q01DX001 (ip), vehicle: saline
  survivor count: 0 of 6
dose: 350.0 mg/kg/injection, schedule: Q01DX001 (ip), vehicle: saline
  survivor count: 0 of 6
